Data reported in the supplement of paper PMC7661543.
± gives the standard deviation of the averaged measurements. The effect of the compound repeats well; differences between the knockouts mostly do not.

Assays:
HCC-38 = assay: relative cell number vs DMSO control (72 h) (% of DMSO); higher = less growth inhibition (more cells)
Procedure: (§1)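 QMAP-Seq: a pool of 5 breast cancer cell lines (ZR-75-1, SKBR3, HCC-38, MDA-MB-231, BT-20), each carrying 12 doxycycline-inducible Cas9 sgRNA perturbations (11 knockouts plus non-targeting sgNT), was treated with compounds for 72 h at four 10-fold doses (10 nM-10 uM or 1 nM-1 uM range). Barcodes were amplified and sequenced, and cell number was interpolated from 293T spike-in standard curves. The result is expressed as % of the median of DMSO wells. Two biological replicates.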

BT-20 = assay: as above
Procedure: as §1

[1] = sgRNA knockout: sgATF3, 1000 nM
[2] = sgRNA knockout: sgATF3, 10000 nM
[3] = sgRNA knockout: sgATF4, 1000 nM
[4] = sgRNA knockout: sgATF4, 10000 nM
[5] = sgRNA knockout: sgATF6, 1000 nM
[6] = sgRNA knockout: sgATF6, 10000 nM
[7] = sgRNA knockout: sgATG7, 1000 nM
[8] = sgRNA knockout: sgATG7, 10000 nM
[9] = sgRNA knockout: sgERN1, 1000 nM
[10] = sgRNA knockout: sgERN1, 10000 nM
[11] = sgRNA knockout: sgHSF1, 1000 nM
[12] = sgRNA knockout: sgHSF1, 10000 nM
[13] = sgRNA knockout: sgHSF2, 1000 nM
[14] = sgRNA knockout: sgHSF2, 10000 nM
[15] = sgRNA knockout: sgKEAP1, 100 nM
[16] = sgRNA knockout: sgKEAP1, 1000 nM
[17] = sgRNA knockout: sgKEAP1, 10000 nM
[18] = sgRNA knockout: sgNFE2L2, 10 nM
[19] = sgRNA knockout: sgNFE2L2, 100 nM
[20] = sgRNA knockout: sgNFE2L2, 1000 nM
[21] = sgRNA knockout: sgNFE2L2, 10000 nM
[22] = sgRNA knockout: sgSLC35F2, 10 nM
[23] = sgRNA knockout: sgSLC35F2, 100 nM
[24] = sgRNA knockout: sgSLC35F2, 1000 nM
[25] = sgRNA knockout: sgSLC35F2, 10000 nM
[26] = sgRNA knockout: sgXBP1, 1000 nM
[27] = sgRNA knockout: sgXBP1, 10000 nM

c1cc(Nc2cc(C3CC3)[nH]n2)nc(Nc2ccc3nc[nH]c3c2)n1 [APY29] was tested, and the relative cell number (HCC-38; sgRNA knockout: sgATF3, 10 nM) was 92.6 ± 12, the relative cell number (HCC-38; sgRNA knockout: sgATF3, 100 nM) was 61.8 ± 1.5 and the relative cell number (HCC-38; [1]) was 28.9 ± 3.4. It also gave a relative cell number (HCC-38; [2]) of 22.9 ± 2, a relative cell number (HCC-38; sgRNA knockout: sgATF4, 10 nM) of 91.9 ± 24 and a relative cell number (HCC-38; sgRNA knockout: sgATF4, 100 nM) of 67.1 ± 4.2. For the same compound, the relative cell number (HCC-38; [3]) was 27.7 ± 3.9, the relative cell number (HCC-38; [4]) was 24.1 ± 3.8 and the relative cell number (HCC-38; sgRNA knockout: sgATF6, 10 nM) was 111 ± 26. For the same compound, the relative cell number (HCC-38; sgRNA knockout: sgATF6, 100 nM) was 78.9 ± 6.5, the relative cell number (HCC-38; [5]) was 28.9 ± 3.7 and the relative cell number (HCC-38; [6]) was 27.9 ± 0.28. It also gave a relative cell number (HCC-38; sgRNA knockout: sgATG7, 10 nM) of 93.4 ± 17, a relative cell number (HCC-38; sgRNA knockout: sgATG7, 100 nM) of 63.38 ± 0.25 and a relative cell number (HCC-38; [7]) of 26.1 ± 2.3. The relative cell number (HCC-38; [8]) was 22.4 ± 1.4, the relative cell number (HCC-38; sgRNA knockout: sgERN1, 10 nM) was 97.5 ± 26 and the relative cell number (HCC-38; sgRNA knockout: sgERN1, 100 nM) was 66.4 ± 5.5. The relative cell number (HCC-38; [9]) was 26.5 ± 5.4, the relative cell number (HCC-38; [10]) was 24.6 ± 1 and the relative cell number (HCC-38; sgRNA knockout: sgHSF1, 10 nM) was 101 ± 38. For the same compound, the relative cell number (HCC-38; sgRNA knockout: sgHSF1, 100 nM) was 72.4 ± 18, the relative cell number (HCC-38; [11]) was 26.1 ± 9.2 and the relative cell number (HCC-38; [12]) was 22.2 ± 2.5. The relative cell number (HCC-38; sgRNA knockout: sgHSF2, 10 nM) was 107 ± 35, the relative cell number (HCC-38; sgRNA knockout: sgHSF2, 100 nM) was 65.8 ± 5.5 and the relative cell number (HCC-38; [13]) was 28 ± 4.4. For the same compound, the relative cell number (HCC-38; [14]) was 30.1 ± 8.4, the relative cell number (HCC-38; sgRNA knockout: sgKEAP1, 10 nM) was 121 ± 49 and the relative cell number (HCC-38; [15]) was 80.3 ± 10. The relative cell number (HCC-38; [16]) was 34.2 ± 0.7, the relative cell number (HCC-38; [17]) was 23.8 ± 6 and the relative cell number (HCC-38; [18]) was 88.9 ± 23. For the same compound, the relative cell number (HCC-38; [19]) was 60.6 ± 6.4, the relative cell number (HCC-38; [20]) was 27.8 ± 1.2 and the relative cell number (HCC-38; [21]) was 23.6 ± 0.94. The relative cell number (HCC-38; [22]) was 82 ± 7.8, the relative cell number (HCC-38; [23]) was 66.5 ± 3.2 and the relative cell number (HCC-38; [24]) was 31.8 ± 6.2. The relative cell number (HCC-38; [25]) was 24.2 ± 4, the relative cell number (HCC-38; sgRNA knockout: sgXBP1, 10 nM) was 98.7 ± 30 and the relative cell number (HCC-38; sgRNA knockout: sgXBP1, 100 nM) was 65.5 ± 2.5. It also gave a relative cell number (HCC-38; [26]) of 30 ± 0.78, a relative cell number (HCC-38; [27]) of 24.5 ± 1.1 and a relative cell number (BT-20; sgRNA knockout: sgATF3, 10 nM) of 115 ± 27. For the same compound, the relative cell number (BT-20; sgRNA knockout: sgATF3, 100 nM) was 95.9 ± 11, the relative cell number (BT-20; [1]) was 73.2 ± 1.8 and the relative cell number (BT-20; [2]) was 37.8 ± 14. It also gave a relative cell number (BT-20; sgRNA knockout: sgATF4, 10 nM) of 118 ± 38, a relative cell number (BT-20; sgRNA knockout: sgATF4, 100 nM) of 106 ± 11 and a relative cell number (BT-20; [3]) of 75.8 ± 6.6. It also gave a relative cell number (BT-20; [4]) of 40.9 ± 7.9, a relative cell number (BT-20; sgRNA knockout: sgATF6, 10 nM) of 105 ± 21 and a relative cell number (BT-20; sgRNA knockout: sgATF6, 100 nM) of 92.8 ± 17. It also gave a relative cell number (BT-20; [5]) of 92.7 ± 3.6, a relative cell number (BT-20; [6]) of 34.9 ± 2.8 and a relative cell number (BT-20; sgRNA knockout: sgATG7, 10 nM) of 110 ± 13. For the same compound, the relative cell number (BT-20; sgRNA knockout: sgATG7, 100 nM) was 82.8 ± 21, the relative cell number (BT-20; [7]) was 89.57 ± 0.25 and the relative cell number (BT-20; [8]) was 36.7 ± 4.4. It also gave a relative cell number (BT-20; sgRNA knockout: sgERN1, 10 nM) of 111 ± 3.5, a relative cell number (BT-20; sgRNA knockout: sgERN1, 100 nM) of 93.9 ± 14 and a relative cell number (BT-20; [9]) of 70.4 ± 7. The relative cell number (BT-20; [10]) was 36.3 ± 3.1, the relative cell number (BT-20; sgRNA knockout: sgHSF1, 10 nM) was 103 ± 9.4 and the relative cell number (BT-20; sgRNA knockout: sgHSF1, 100 nM) was 79.6 ± 7.1. The relative cell number (BT-20; [11]) was 64.4 ± 7, the relative cell number (BT-20; [12]) was 36.8 ± 7.4 and the relative cell number (BT-20; sgRNA knockout: sgHSF2, 10 nM) was 128 ± 50. The relative cell number (BT-20; sgRNA knockout: sgHSF2, 100 nM) was 76.6 ± 21, the relative cell number (BT-20; [13]) was 73.8 ± 1.6 and the relative cell number (BT-20; [14]) was 42.6 ± 0.36. It also gave a relative cell number (BT-20; sgRNA knockout: sgKEAP1, 10 nM) of 112 ± 25, a relative cell number (BT-20; [15]) of 80.3 ± 8.6 and a relative cell number (BT-20; [16]) of 76.8 ± 7.5. For the same compound, the relative cell number (BT-20; [17]) was 41.8 ± 2.6, the relative cell number (BT-20; [18]) was 105 ± 13 and the relative cell number (BT-20; [19]) was 85.6 ± 16. For the same compound, the relative cell number (BT-20; [20]) was 76.2 ± 11, the relative cell number (BT-20; [21]) was 33.6 ± 3.3 and the relative cell number (BT-20; [22]) was 109 ± 4.8. It also gave a relative cell number (BT-20; [23]) of 88.7 ± 3.7, a relative cell number (BT-20; [24]) of 84.4 ± 13 and a relative cell number (BT-20; [25]) of 45.6 ± 1.9. The relative cell number (BT-20; sgRNA knockout: sgXBP1, 10 nM) was 104 ± 7.7, the relative cell number (BT-20; sgRNA knockout: sgXBP1, 100 nM) was 91.3 ± 8.6 and the relative cell number (BT-20; [26]) was 80.1 ± 6.5. It also gave a relative cell number (BT-20; [27]) of 41.7 ± 2.9.
